This is one part of the list.

Sequences of proteins named here, by UniProt entry; tags and fusion partners are left off. A change or cut given only in a name is not applied to a line headed by its entry.
UniProt Q9NQC8: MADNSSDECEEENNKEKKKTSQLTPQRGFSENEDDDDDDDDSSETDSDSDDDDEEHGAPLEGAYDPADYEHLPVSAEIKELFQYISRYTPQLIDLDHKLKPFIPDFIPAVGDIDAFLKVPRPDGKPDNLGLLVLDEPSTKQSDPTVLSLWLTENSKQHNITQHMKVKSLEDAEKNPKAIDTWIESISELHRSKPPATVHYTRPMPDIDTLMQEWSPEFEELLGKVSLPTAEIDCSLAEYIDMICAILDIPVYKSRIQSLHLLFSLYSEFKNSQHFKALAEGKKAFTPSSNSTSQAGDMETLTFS
UniProt Q9Y2F5: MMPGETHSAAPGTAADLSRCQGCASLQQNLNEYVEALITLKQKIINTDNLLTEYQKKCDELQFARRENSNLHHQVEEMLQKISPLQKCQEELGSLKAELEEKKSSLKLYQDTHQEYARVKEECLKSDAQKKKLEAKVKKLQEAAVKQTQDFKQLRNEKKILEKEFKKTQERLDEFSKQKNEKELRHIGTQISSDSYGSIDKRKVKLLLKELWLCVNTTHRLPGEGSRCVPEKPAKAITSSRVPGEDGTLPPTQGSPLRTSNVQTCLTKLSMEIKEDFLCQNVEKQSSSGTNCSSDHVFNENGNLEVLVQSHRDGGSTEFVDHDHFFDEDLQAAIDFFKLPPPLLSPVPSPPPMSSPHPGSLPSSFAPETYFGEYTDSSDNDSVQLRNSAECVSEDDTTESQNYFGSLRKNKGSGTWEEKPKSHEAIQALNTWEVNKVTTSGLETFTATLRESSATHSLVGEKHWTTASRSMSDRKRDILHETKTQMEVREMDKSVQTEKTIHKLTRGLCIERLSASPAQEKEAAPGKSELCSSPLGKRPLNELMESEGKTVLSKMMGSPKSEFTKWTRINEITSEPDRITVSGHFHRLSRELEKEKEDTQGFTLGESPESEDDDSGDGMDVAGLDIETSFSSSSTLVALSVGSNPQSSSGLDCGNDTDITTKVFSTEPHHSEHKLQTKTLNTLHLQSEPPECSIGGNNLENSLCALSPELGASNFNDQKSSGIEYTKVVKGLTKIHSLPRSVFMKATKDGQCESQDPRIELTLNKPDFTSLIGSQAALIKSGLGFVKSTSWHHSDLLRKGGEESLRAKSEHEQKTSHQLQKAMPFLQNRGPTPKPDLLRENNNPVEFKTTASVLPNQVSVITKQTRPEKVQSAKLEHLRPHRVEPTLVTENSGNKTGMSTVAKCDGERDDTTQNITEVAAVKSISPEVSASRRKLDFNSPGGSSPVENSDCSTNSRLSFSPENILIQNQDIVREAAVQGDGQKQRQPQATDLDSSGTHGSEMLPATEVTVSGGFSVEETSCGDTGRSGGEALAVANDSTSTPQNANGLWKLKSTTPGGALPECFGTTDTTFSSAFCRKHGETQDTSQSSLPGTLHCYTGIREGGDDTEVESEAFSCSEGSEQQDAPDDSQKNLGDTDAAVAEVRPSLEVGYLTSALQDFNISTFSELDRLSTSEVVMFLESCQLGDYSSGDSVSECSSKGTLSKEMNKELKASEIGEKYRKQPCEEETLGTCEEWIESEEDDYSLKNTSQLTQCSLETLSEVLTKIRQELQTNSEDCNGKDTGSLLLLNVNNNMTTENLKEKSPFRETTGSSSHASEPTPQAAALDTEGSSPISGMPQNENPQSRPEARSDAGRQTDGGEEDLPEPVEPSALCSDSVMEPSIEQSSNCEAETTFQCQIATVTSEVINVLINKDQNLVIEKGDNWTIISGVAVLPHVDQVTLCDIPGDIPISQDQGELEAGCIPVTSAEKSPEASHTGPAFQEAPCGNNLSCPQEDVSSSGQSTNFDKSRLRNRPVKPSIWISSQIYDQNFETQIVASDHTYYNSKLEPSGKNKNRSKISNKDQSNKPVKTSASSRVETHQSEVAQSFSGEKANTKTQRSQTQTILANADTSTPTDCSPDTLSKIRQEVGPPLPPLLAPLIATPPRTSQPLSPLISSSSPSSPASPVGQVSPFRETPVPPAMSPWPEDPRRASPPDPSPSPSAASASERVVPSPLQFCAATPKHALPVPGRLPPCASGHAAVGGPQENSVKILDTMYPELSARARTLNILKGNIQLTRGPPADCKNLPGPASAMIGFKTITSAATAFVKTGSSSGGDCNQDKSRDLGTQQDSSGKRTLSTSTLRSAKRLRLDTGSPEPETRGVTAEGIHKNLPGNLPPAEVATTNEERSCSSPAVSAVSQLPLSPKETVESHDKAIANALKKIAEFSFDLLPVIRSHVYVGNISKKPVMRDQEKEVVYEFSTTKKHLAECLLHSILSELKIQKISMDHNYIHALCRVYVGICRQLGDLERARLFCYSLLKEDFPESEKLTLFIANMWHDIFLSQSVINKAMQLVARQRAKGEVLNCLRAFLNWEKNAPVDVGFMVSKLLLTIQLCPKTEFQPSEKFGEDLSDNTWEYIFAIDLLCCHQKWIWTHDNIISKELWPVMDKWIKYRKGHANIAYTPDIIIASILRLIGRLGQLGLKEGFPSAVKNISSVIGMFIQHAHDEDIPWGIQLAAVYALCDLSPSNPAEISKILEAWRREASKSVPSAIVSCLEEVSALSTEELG
UniProt Q96D96: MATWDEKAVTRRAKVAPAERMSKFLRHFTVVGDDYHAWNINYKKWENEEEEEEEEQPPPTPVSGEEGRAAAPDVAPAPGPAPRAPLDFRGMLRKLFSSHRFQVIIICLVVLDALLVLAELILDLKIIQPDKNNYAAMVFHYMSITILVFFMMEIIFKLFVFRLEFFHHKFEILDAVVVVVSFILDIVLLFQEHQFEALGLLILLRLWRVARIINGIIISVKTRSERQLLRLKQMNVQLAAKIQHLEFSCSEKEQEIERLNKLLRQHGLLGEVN
UniProt Q8WYA0: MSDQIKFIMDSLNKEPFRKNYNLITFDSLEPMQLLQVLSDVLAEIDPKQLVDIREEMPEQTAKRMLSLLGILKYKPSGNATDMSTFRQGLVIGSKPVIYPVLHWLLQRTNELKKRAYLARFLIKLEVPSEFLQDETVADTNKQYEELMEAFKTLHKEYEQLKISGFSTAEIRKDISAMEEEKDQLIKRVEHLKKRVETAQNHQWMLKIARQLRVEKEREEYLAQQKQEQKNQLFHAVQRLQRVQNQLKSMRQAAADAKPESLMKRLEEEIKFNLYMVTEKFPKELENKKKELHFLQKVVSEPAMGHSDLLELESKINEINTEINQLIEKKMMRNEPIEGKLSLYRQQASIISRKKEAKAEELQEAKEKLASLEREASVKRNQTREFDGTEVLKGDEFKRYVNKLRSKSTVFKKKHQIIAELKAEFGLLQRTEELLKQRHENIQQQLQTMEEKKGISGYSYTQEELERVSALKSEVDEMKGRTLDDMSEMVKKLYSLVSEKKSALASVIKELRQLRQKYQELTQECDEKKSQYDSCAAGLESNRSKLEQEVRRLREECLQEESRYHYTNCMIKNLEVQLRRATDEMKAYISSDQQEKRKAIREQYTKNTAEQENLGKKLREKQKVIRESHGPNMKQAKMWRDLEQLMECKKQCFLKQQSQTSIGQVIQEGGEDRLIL
UniProt P50213: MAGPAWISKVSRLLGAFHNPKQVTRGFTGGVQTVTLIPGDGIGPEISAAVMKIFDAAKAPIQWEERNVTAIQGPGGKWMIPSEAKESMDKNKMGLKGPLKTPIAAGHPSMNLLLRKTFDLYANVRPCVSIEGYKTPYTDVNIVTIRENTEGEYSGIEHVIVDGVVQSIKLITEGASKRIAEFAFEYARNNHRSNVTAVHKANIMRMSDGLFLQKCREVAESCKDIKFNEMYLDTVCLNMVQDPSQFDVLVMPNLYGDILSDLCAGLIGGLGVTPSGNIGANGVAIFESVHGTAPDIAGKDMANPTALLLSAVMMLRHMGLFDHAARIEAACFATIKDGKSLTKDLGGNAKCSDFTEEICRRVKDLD
UniProt Q12906, whole entry, looked up: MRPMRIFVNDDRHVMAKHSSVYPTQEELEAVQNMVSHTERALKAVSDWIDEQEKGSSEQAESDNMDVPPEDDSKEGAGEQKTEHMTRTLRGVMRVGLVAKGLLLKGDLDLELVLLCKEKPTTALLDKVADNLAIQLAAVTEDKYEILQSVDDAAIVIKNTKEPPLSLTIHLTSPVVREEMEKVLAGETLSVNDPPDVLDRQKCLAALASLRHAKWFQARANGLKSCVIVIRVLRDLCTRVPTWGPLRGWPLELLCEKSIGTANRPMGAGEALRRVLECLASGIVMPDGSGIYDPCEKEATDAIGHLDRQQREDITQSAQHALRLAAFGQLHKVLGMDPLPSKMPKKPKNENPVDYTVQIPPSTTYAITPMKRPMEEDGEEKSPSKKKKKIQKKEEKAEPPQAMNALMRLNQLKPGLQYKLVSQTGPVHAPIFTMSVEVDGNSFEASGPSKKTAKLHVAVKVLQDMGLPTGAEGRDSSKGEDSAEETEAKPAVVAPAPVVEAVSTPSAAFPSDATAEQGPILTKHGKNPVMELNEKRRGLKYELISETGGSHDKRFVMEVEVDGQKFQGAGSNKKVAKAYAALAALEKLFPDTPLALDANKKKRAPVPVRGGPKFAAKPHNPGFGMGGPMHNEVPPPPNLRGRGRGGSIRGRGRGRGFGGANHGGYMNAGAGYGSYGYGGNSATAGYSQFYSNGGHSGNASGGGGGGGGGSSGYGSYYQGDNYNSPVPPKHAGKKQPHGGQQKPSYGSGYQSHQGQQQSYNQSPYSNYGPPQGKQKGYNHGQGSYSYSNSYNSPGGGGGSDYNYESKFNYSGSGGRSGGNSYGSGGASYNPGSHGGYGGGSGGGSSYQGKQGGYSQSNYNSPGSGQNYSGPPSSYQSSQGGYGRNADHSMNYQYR
UniProt Q96F46, whole entry, looked up: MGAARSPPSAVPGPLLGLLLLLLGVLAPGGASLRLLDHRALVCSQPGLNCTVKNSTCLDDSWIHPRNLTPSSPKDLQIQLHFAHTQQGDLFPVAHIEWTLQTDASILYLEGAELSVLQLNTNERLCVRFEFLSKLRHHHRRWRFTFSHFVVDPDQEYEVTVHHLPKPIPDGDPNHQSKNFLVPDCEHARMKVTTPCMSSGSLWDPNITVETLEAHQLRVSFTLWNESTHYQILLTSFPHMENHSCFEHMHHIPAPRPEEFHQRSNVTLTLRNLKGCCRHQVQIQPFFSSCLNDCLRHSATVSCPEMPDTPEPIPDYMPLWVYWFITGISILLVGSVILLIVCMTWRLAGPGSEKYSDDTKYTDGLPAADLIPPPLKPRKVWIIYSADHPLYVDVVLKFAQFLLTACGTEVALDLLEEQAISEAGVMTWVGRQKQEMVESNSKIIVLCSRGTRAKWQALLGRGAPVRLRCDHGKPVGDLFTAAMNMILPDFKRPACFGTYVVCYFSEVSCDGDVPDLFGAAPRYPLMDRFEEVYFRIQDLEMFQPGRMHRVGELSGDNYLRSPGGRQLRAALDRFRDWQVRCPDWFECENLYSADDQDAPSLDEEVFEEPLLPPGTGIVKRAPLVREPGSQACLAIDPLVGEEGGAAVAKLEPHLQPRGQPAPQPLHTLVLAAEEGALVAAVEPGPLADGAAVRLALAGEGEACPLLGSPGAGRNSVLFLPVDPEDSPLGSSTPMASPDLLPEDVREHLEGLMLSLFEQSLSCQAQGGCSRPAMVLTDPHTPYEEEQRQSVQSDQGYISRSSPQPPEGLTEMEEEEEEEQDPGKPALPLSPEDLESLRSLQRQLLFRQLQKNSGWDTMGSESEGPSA
UniProt P15516: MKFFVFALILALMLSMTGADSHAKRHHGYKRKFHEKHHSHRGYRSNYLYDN
IGKV3D-7, A0A0C4DH55, UniProt A0A0C4DH55, whole entry, looked up: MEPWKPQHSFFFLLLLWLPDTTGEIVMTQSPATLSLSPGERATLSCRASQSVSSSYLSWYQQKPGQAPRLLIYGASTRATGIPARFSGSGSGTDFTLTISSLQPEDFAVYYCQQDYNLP
UniProt Q14773: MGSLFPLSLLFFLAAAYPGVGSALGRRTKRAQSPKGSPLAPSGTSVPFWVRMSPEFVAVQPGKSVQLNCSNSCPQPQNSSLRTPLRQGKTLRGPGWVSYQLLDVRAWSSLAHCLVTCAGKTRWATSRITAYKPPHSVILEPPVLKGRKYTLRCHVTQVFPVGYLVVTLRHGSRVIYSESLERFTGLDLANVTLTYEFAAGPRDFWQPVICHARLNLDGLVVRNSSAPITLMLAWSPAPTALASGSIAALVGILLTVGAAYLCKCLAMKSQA
UniProt P01871, whole entry, looked up: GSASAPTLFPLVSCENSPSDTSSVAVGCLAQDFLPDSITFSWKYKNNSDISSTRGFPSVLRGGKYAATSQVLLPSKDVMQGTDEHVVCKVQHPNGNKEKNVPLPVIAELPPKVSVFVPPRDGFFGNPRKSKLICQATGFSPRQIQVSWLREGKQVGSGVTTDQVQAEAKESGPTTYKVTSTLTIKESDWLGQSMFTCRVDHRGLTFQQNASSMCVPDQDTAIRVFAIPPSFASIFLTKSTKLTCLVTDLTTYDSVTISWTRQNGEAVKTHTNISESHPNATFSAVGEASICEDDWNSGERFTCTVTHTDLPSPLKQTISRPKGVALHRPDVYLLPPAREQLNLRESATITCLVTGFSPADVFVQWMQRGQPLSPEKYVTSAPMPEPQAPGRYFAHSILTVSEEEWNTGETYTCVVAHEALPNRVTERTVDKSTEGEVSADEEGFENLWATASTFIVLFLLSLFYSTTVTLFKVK

Compound in one experiment: Cc1cc(Nc2cc(CN3CCOCC3)c3nc(C)c(Cc4ccc(Cl)cc4F)n3n2)n[nH]1 [gandotinib]
The experiment in a line: log2 fold change, soluble protein after heating vs DMSO (PISA); higher = thermal stabilisation; K562 lysate, 10 uM; active = over 0.2 and 3.5 SD of the protein, either way, in both replicates (recomputed). The gist of the method:
(§1)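 Quantification was by TMTpro 16plex LC-MS/MS with equalised channel sums, applied to the supernatant after 21,000xg for 90 min. Samples were crude K562 extract at 1 mg/mL protein in PBS pH 7.4 with 1 mM MgCl2, treated with 10 μM compound for 30 min, heated for 3 min across 48°C-58°C, pooled and brought to 0.5% NP-40 at 4°C. Values are log-two fold changes in thermal stability relative to solvent controls, from duplicates.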
As for HUWE1, A0A087X1S3, the log2 fold change was inactive: 0.06.
For the target INPP5E (UniProt Q9NRR6), the log2 fold change was inactive: 0.105.
The same measure, in the same setting: as for IFT46 isoform 2 (UniProt Q9NQC8), the figure is inactive: 0.325; as for ICE1 (UniProt Q9Y2F5), inactive: -0.042; as for IGLC3 (UniProt P0DOY3), inactive: -0.386.
Still for that read-out and setting: as for IMP4 (UniProt Q96G21), the figure is inactive: -0.067; as for INO80 (UniProt Q9ULG1), inactive: -0.022.
In the case of INHBE (UniProt P58166), the log2 fold change is inactive: -0.123.
On to HVCN1 (UniProt Q96D96), for which the log2 fold change is inactive: 0.362.
Consider HYOU1, A0A494C039, for which the log2 fold change is inactive: -0.175.
For IFT81 (UniProt Q8WYA0), the log2 fold change was inactive: -0.276.
As to HSPH1 (UniProt Q5TBM3), the log2 fold change is inactive: -0.046.
With IL13RA1 (UniProt P78552), the log2 fold change was inactive: 0.039.
Consider IDH3A isoform 2 (UniProt P50213), for which the log2 fold change was inactive: 0.196.
Take IGSF1 isoform 4 (UniProt Q8N6C5): the log2 fold change was inactive: 0.034.
Consider HTRA3 (UniProt P83110), for which the log2 fold change is inactive: -0.052.
As for IMPDH2 (UniProt H0Y4R1), the log2 fold change was inactive: 0.16.
For ILF3 (UniProt Q12906), the log2 fold change was inactive: 0.013.
In the case of IGHA2 (UniProt P01877), the log2 fold change was inactive: -0.443.
For the target IL17RA (UniProt Q96F46), the log2 fold change was inactive: -0.06.
Turning to IGHG3 (UniProt P01860), the log2 fold change was inactive: 0.17.
As to IGKV1D-33, A0A2Q2TTZ9, the log2 fold change was inactive: -0.178.
Take HTN3 (UniProt P15516): the log2 fold change was inactive: -0.001.
As for HTD2 (UniProt P86397), the log2 fold change is inactive: -0.11.
Take IGHV3-72, A0A4W8ZXM2: the log2 fold change was inactive: -0.053.
On the same count and under the same terms, as for IFIH1 (UniProt Q9BYX4), the figure is inactive: 0.106.
Take IL6ST (UniProt P40189): the log2 fold change is inactive: -0.342.
Still for that read-out and setting: the same measure for IGKV3-20 (UniProt P01619): inactive: -0.09.
As for IGKV3D-7, A0A0C4DH55, the log2 fold change is inactive: 0.141.
Turning to IFNAR1 (UniProt P17181), the log2 fold change is inactive: -0.02.
Consider IDUA (UniProt P35475), for which the log2 fold change was inactive: 0.021.
ICAM4 (UniProt Q14773): the log2 fold change was inactive: 0.042.
The same measure, in the same setting: as for IGHM isoform 2 (UniProt P01871), the figure is inactive: -0.048.

Compound in another experiment: Cc1cc(Nc2cc(N3CCN(C)CC3)nc(Sc3ccc(NC(=O)C4CC4)cc3)n2)n[nH]1 [tozasertib]
Described as above. The gist of the method:
as §1
As to HUWE1, A0A087X1S3, the log2 fold change was inactive: -0.167.
Same read-out and setting: as for IFT46 isoform 2 (UniProt Q9NQC8), the figure is inactive: 0.085.
The same measure, in the same setting: the same measure for ICE1 (UniProt Q9Y2F5): inactive: 0.095.
Turning to HVCN1 (UniProt Q96D96), the log2 fold change is inactive: 0.222.
Turning to HYOU1, A0A494C039, the log2 fold change is inactive: 0.055.
Turning to IDH3A isoform 2 (UniProt P50213), the log2 fold change is inactive: -0.002.
As to IGSF1 isoform 4 (UniProt Q8N6C5), the log2 fold change is inactive: 0.149.
Same read-out and setting: as for IMPDH2 (UniProt H0Y4R1), the figure is inactive: -0.028; as for ILF3 (UniProt Q12906), inactive: -0.244.
As to IL10RB (UniProt Q08334), the log2 fold change was inactive: -0.081.
As for IL17RA (UniProt Q96F46), the log2 fold change was inactive: 0.01.
On the same count and under the same terms, as for HTD2 (UniProt P86397), the figure is inactive: 0.17; as for IFIH1 (UniProt Q9BYX4), inactive: 0.063; as for ICAM4 (UniProt Q14773), inactive: 0.126.

Compound in the next experiment: Cc1ccc(-n2nc(C(C)(C)C)cc2NC(=O)Nc2ccc(OCCN3CCOCC3)c3ccccc23)cc1 [doramapimod]
The experiment is described as above. The gist of the method:
as §1
With INPP5E (UniProt Q9NRR6), the log2 fold change is inactive: -0.12.
As to IFT46 isoform 2 (UniProt Q9NQC8), the log2 fold change was inactive: -0.128.
The same measure, in the same setting: as for ICE1 (UniProt Q9Y2F5), the figure is inactive: -0.116; as for IMP4 (UniProt Q96G21), inactive: 0.097; as for INO80 (UniProt Q9ULG1), inactive: 0.067.
On to INHBE (UniProt P58166), for which the log2 fold change is inactive: -0.077.
As to IFT81 (UniProt Q8WYA0), the log2 fold change was inactive: -0.079.
Same read-out and setting: the same measure for IL13RA1 (UniProt P78552): inactive: -0.016; for IMPDH2 (UniProt H0Y4R1): inactive: 0.028.
The same measure, in the same setting: the same measure for ILF3 (UniProt Q12906): inactive: 0.003; for IL10RB (UniProt Q08334): inactive: 0.085.
On to IL17RA (UniProt Q96F46), for which the log2 fold change was inactive: -0.159.
With HTD2 (UniProt P86397), the log2 fold change was inactive: 0.002.
On to IFNAR1 (UniProt P17181), for which the log2 fold change is inactive: 0.074.
In the case of IDUA (UniProt P35475), the log2 fold change is inactive: -0.155.

Compound in another experiment: Cc1ccc(NC(=O)c2ccc(CN3CC[C@H](N(C)C)C3)c(C(F)(F)F)c2)cc1Nc1nccc(-c2cncnc2)n1 [bafetinib]
The description is as above. The gist of the method:
as §1
Consider HUWE1, A0A087X1S3, for which the log2 fold change is inactive: -0.027.
The same measure, in the same setting: as for ICE1 (UniProt Q9Y2F5), the figure is inactive: -0.101; as for IGLC3 (UniProt P0DOY3), inactive: -0.135.
Turning to HVCN1 (UniProt Q96D96), the log2 fold change was inactive: 0.013.
For the target HYOU1, A0A494C039, the log2 fold change is inactive: -0.133.
On to IFT81 (UniProt Q8WYA0), for which the log2 fold change is inactive: -0.142.
Consider HSPH1 (UniProt Q5TBM3), for which the log2 fold change is inactive: 0.273.
Turning to IDH3A isoform 2 (UniProt P50213), the log2 fold change was inactive: -0.023.
Consider IMPDH2 (UniProt H0Y4R1), for which the log2 fold change is inactive: 0.022.
As to ILF3 (UniProt Q12906), the log2 fold change is inactive: -0.016.
As to IL17RA (UniProt Q96F46), the log2 fold change was inactive: -0.165.
In the case of IGHG3 (UniProt P01860), the log2 fold change is inactive: -0.363.
Turning to HTD2 (UniProt P86397), the log2 fold change was inactive: -0.142.
In the case of IFIH1 (UniProt Q9BYX4), the log2 fold change was inactive: -0.113.
With ICAM4 (UniProt Q14773), the log2 fold change was inactive: 0.024.
